Data taken from PubChem BioAssay AID1159506, deposited by NCATS (2015).

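Luminescence from an EWS-FLI1 target-promoter (NR0B1) reporter, set against a CMV-promoter reporter, two days after silencing single genes in TC32 Ewing sarcoma cells. Each siRNA was applied at 20 nM. A z-score of the log NR0B1-over-CMV signal, less the median of siRNAs with the same seed; more negative means a stronger specific loss of the NR0B1 reporter.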

This is part of the screen; most of the strongest results are not listed here. Sequences are the guide (antisense) strand, without overhang.

Sequence	gene	seed-corrected z-score
UUAUGAAGGAAGGACGACU	TPRG1L	2.444
UAAGGCGCACUGAAGUUCU	HOXA1	0.3332
ACAUUUUGCCCAAAAUUGC	DSCR4	0.1665
UAUUUGGUUGAGAUCAUAG	CD248	-0.1052
UUUACUAGUAAUAACUACC	GBE1	0.3381
UGCACAAACAGGUGUUUGC	TEAD3	0.7791
ACUGUAUAAACAUUCAGUC	OSBPL1A	0.3157
UUAGUCUGCAGCUUGAAGG	THBS4	-0.5161
UCUAUGGGCAUCGCCAGCA	MRPL55	-0.3941
UAACAGAAGCGGUUGAUGA	GREM1	0.4534
UCUACUUUCUGUAUGGGUC	SSR1	0.2771
CAAAGAAGCAUGAACUGGG	LOC728417	1.177
UCUCUUGCAAAUAUUAUCA	LOC340113	0.3829
UAUUAGGAUAGAAGCACCA	TFF1	0.08029
AGGAAUGACAUCUCUCGGC	NBPF15	-0.219
UUCUUGAACUUGGAUCGCU	DLX1	-0.2129
UGACAUGCUAGGAAUAAGC	FKBP15	0.5945
UUCUCGAACAUGCUAGGCC	TCTE3	0.5766
UGAGCUAUAGUAGCGGUCC	IL12B	0.9089
UUAUUGACAAAGACGGACA	CTSF	0.5615
UUCAGGGUGAGAUAAUCCU	HLA-E	0.5034
UCUUGUCUUACAUUGUUCA	CST9LP1	0.03871
UUUGUCAUAAUGUCUGAGG	RNF144B	-0.492
AAGAUGUUGAGGUUCAGGC	INF2	2.373
AAAAUCACAAGAUACAUUG	AGPAT5	-0.7774
UAUGAUCUUUGUAGCAAGC	SUN3	-0.9625
UUUCGGUUCUCUGCAUUGG	CACHD1	-0.7366
UAUGAAUAUGUUAUUGAUG	OR7E154P	0.6153
UACCCAACCAAGAACCUUG	ZDHHC13	-0.5784
UAAUAUACAGUGUAAAUGC	POU4F2	0.3947
UUUAGUCUCAAAGCCUUGC	ADK	-0.6306
UACCCAUUCUCCUAGUUUC	RPS12P22	1.328
UGAUCUUCAGCAUAGUAGC	CDH18	-0.2523
UCAGUUAGAACAAGAGGGC	EIF5	-0.1384
UUGGAUUUACUUUUGUUAC	VAX1	-0.02198
UGCGCAUUGAGGAUCUUGC	NUP62	0.5917
UCGAUUGUAACAGAUUUUG	RNF182	-0.1894
AAAUUUCUUAGAAGGCAUC	SPIRE2	-1.015
UGUGAUUGAAUUCUCCCUG	SMR3A	1.583
UUGCUAUCUCUUAACAUGG	SDAD1	1.426
UCACUCACAUGCUCUACGC	ABTB1	-0.4714
UCGGGUGAAAUAAUGGUGG	UBE2I	-0.4918
UAAUCCAUGAUGCAACGGC	TNPO1	-0.7657
UUGGUGUAAUAAUAUUCCU	COPS6	0.3433
UUUGAUAAGAUACAGAGAG	SPIN3	1.488
UCUGGUAUAGGAGAUCAAG	ARHGAP19	-0.6422
UCAGUAACAAUCAGAACCC	RPSAP20	0.4678
UUUGCUGUGGGUCAAACCC	ATP1A3	0.3243
AGACCGAAAGAAAUUAUCC	MUTYH	0.1515
UGUGGAACAAGCGAUCUGC	PIGT	-0.1971
UUUGCGUUUUACUUAUUGC	SPECC1L	-0.1324
AUAUGGAUCAGCCGCAGCG	TRPM5	0.7023
UGAGAUUUCGUAAUUGAUC	MED30	0.03403
UAAUCGAUGAACAAACAGU	CENPW	0.1199
AUGUUUAAGGGUGGUCUCG	HOST2	-0.6849
UAUCUAAUCCCUGAUAGCC	ADAMTS19	0.3358
AUAUCUAUUGUAUUCCUUG	SKAP2	0.01381
UUAAGUUCCUUGACCUCUG	NBR1	0.2788
AAGCGUUUAUUGAGGAGUU	FAM167B	-0.4924
UGAUCUCACAGGACAACUC	TET2	-0.9325
UCAGUUUGGACAGAAACUC	IL17RA	0.09226

Once more, the final 5:

* AUAUCUAUUGUAUUCCUUG against SKAP2 | seed-corrected z-score 0.01381
* UUAAGUUCCUUGACCUCUG against NBR1 | seed-corrected z-score 0.2788
* AAGCGUUUAUUGAGGAGUU against FAM167B | seed-corrected z-score -0.4924
* UGAUCUCACAGGACAACUC against TET2 | seed-corrected z-score -0.9325
* UCAGUUUGGACAGAAACUC against IL17RA | seed-corrected z-score 0.09226